The values that follow come from article PMC7819943, “Rice protein-binding microarrays: a tool to detect cis-acting elements near promoter regions in rice”.

Some of the results follow.

This test has as its target T1, OsSMF1 (Oryza sativa, UniProt Q6ZLB0 1-436).
T1 sequence: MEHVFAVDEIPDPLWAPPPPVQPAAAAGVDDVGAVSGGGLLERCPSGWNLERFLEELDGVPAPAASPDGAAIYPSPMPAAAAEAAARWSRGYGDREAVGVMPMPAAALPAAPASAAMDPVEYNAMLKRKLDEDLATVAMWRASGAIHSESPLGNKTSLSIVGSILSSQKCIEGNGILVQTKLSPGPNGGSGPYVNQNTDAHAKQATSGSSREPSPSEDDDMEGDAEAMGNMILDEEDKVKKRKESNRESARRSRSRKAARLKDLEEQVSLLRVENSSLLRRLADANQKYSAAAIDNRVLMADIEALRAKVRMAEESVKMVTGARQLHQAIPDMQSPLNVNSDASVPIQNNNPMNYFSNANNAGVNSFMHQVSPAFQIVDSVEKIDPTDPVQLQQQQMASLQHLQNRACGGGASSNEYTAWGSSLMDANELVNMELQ
In words: protein-binding microarray (RPBM); PBS, 2% BSA, 51.3 ng/ul salmon testes DNA, 50 uM zinc acetate, 200 nM TF, 25 C, 1 h; high values mean tight binding. As to conditions: protein: recombinant; tags: N-terminal polyhistidine and DsRed monomer fusion (pET32a); chain copies: 2; label: CyDye5-dUTP incorporated in the synthesized complementary strand; 3' TTTTT single-stranded linker to array surface; dsDNA, one strand shown. The gist of the method:
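Binding signal is defined as the fluorescence intensity of each feature in arbitrary units, read on an Axon 4000B scanner. Transcription factors with N-terminal polyhistidine and DsRed fusions came from E. coli BL21-CodonPlus and were purified on Ni–NTA. They were incubated at 200 nM for 1 h at 25 °C on a custom Agilent array that had been made double-stranded with Cy5-dUTP, with 50 µM zinc acetate present, and the array was washed.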
In the case of “TGTGTCCTACATGTGTCCTTATGTGTATATGACATGTGTGCGGAGTCACCTAGTGCAG”, the binding signal is 7040 fluorescence intensity (a.u.).

For the sequence “AGGACGACGTTGACGACGCACTCGATGGTGAGGCGGTCGTCGGAGTCACCTAGTGCAG”, the binding signal is 3740 fluorescence intensity (a.u.).

As for “AGTTGCTCAATTGGTTTACCAATGACATAGTGTGTCACGCCGGAGTCACCTAGTGCAG”, the binding signal was 5830 fluorescence intensity (a.u.). On to “TTCGTTACGAAATATAGAAGCTGAATTTGAACTTACATATCGGAGTCACCTAGTGCAG”, for which the binding signal is 16400 fluorescence intensity (a.u.). Then “TAAAGGCCATTATAACGTGTATTGGAACAGTTATAACTGGCGGAGTCACCTAGTGCAG”, with 3640 fluorescence intensity (a.u.); and “TAAGGGAGGCAGAGGGAGGAGGAAGAAGGGTCAGAGGGAGCGGAGTCACCTAGTGCAG”, with 5140 fluorescence intensity (a.u.); and “GTCAAAACCGCCACGTAGACGCCACGTCATCGAAACCGCCCGGAGTCACCTAGTGCAG”, with 40400 fluorescence intensity (a.u.). Turning to “ATTGATCCTATCTTATGATGCTGATGCGTTGTGTAGGGGTCGGAGTCACCTAGTGCAG”, the binding signal is 3920 fluorescence intensity (a.u.). In the case of “CATTGTTTATGTCAGTGCTGAGTGCTGACTGCTGAGGTATCGGAGTCACCTAGTGCAG” it was 4140 fluorescence intensity (a.u.). In the case of “CTCTCTCCCCTCGCCTCGCCGCGCCGCTGCGTCGTCGGCGCGGAGTCACCTAGTGCAG” it was 4720 fluorescence intensity (a.u.); in that of “TATCAAATACTCCTATCTCTCACAACGTAGAATAAGGAAACGGAGTCACCTAGTGCAG”, 6580 fluorescence intensity (a.u.); in that of “GGCCCTTTCCACCCATAAGCTCGCGTCATTCGCTGATCGCCGGAGTCACCTAGTGCAG”, 7040 fluorescence intensity (a.u.). In the case of “CTCTCCTCCTCCACCTCGCTGACGCTTTGTCCCTTTATTCCGGAGTCACCTAGTGCAG” it was 4890 fluorescence intensity (a.u.). Consider “ATCATACTTATACACTACACGTGTATAGGTTTCCAAACACCGGAGTCACCTAGTGCAG”, for which the binding signal was 5670 fluorescence intensity (a.u.). With “CATCTTCCCTTACAATACCTCGACAGACTAACCATCGCCACGGAGTCACCTAGTGCAG”, the binding signal is 3330 fluorescence intensity (a.u.). For the sequence “TCATAATGGTCACACGATGGCTATATTTCGTCGGCTTATTCGGAGTCACCTAGTGCAG”, the binding signal is 3360 fluorescence intensity (a.u.). On to “ACTGTGATCCCAGTAAAGCTAAGCCAGCTAGGCAAGTTTACGGAGTCACCTAGTGCAG”, for which the binding signal is 4760 fluorescence intensity (a.u.).

For “GCTCGGGGACACCTGAACACATCGGCTTTTGAGCCGCTCGCGGAGTCACCTAGTGCAG”, the binding signal was 3160 fluorescence intensity (a.u.). Take “CCCGACAAAGAGTCTACCAAGAGAGGTGTGACATCACAGTCGGAGTCACCTAGTGCAG”: the binding signal is 4880 fluorescence intensity (a.u.). In the case of “AACAAATAACCCTACAAAGTTGCACGAACAAATTCAACTCCGGAGTCACCTAGTGCAG” it was 3210 fluorescence intensity (a.u.). As to “ACTCCTTCTGGGCATAATTAGATGACGTTTCAGACAACCACGGAGTCACCTAGTGCAG”, the binding signal was 3950 fluorescence intensity (a.u.). As for “AAATAATGACGTTCTATGTGAGTGATTATGCTAATTTCATCGGAGTCACCTAGTGCAG”, the binding signal was 3780 fluorescence intensity (a.u.). Then “AAAAGCTCATCTAGAAGAGATTATTGGGTTATACTAGTCTCGGAGTCACCTAGTGCAG”, with 23800 fluorescence intensity (a.u.); and “GCAGCGACTACTACTACGTCGAAATCGTAGCTAGCTAGGACGGAGTCACCTAGTGCAG”, with 3160 fluorescence intensity (a.u.); and “TGCTTGCTTGCTCACAACCACATCAGATCATTGATCAATGCGGAGTCACCTAGTGCAG”, with 3860 fluorescence intensity (a.u.). In the case of “TAATAAGAGGCTGTAAGTCGGCTAAATGCTGAGGTGGAGGCGGAGTCACCTAGTGCAG” it was 8660 fluorescence intensity (a.u.). Then “TGGGTGGTGTGGCGGCGGTAGTAGCCAAGATAGGGGTCATCGGAGTCACCTAGTGCAG”, with 3170 fluorescence intensity (a.u.); and “ACCTGATGAACGCGGCGGAATAGTTAATCTACGGGACGTGCGGAGTCACCTAGTGCAG”, with 3310 fluorescence intensity (a.u.); and “TGTCCAAATGGCATGACTCACTTATATCCTAATAGGACATCGGAGTCACCTAGTGCAG”, with 7940 fluorescence intensity (a.u.). As for “TCTCAGCGTGCCTGTGTTGTGTACGTGTCATGGCAACGGGCGGAGTCACCTAGTGCAG”, the binding signal was 9300 fluorescence intensity (a.u.). In the case of “ATCGACACGGCGCGACGCACACGCACGCAAACCAAATCTTCGGAGTCACCTAGTGCAG” it was 3220 fluorescence intensity (a.u.); in that of “AGAGTTTAAGGATCTAGATGACACACCGCTACAAGTTTAACGGAGTCACCTAGTGCAG”, 8740 fluorescence intensity (a.u.); in that of “GACGCCTCGCTATTCTCGTCACACATTCGTTTTCCATCCTCGGAGTCACCTAGTGCAG”, 3670 fluorescence intensity (a.u.).

Turning to “GCACCATCCGACGTGCCAAATATCTCTAGCGTGTGATAATCGGAGTCACCTAGTGCAG”, the binding signal is 4050 fluorescence intensity (a.u.). Regarding “TCGCGCGTGCCACGCACCCAGCACGTACGCGTGACGGAGACGGAGTCACCTAGTGCAG”, the binding signal is 5260 fluorescence intensity (a.u.).

Regarding “CATATAGTAGCGGTGGTGTGGAGAGTGTTTGTATTTCTGTCGGAGTCACCTAGTGCAG”, the binding signal was 3200 fluorescence intensity (a.u.). Regarding “TCCAAGAAAGAAAGGAGAATTATCCGGCAGTTTCAGAGGTCGGAGTCACCTAGTGCAG”, the binding signal was 22200 fluorescence intensity (a.u.). Then “GGTAGCCCCATTGACCTTCCACCTGAATCACCCATTGAGCCGGAGTCACCTAGTGCAG”, with 3810 fluorescence intensity (a.u.). “CAGGATGCCACGTCAGCGCCCTCTATCTCTTTCCCCTCCTCGGAGTCACCTAGTGCAG”: the binding signal was 51300 fluorescence intensity (a.u.). Turning to “GTGAGACAAAGTATTCCACGTTGTGGGGACCCACGTGACACGGAGTCACCTAGTGCAG”, the binding signal was 3750 fluorescence intensity (a.u.).

With “CCCAGCTGTCTTTCCTCCAGGTCACCTGACAAATGTCACTCGGAGTCACCTAGTGCAG”, the binding signal was 3950 fluorescence intensity (a.u.).

As to “ACGTAATTATAATTTATTTTATTATGAGTTGTTTTATCACCGGAGTCACCTAGTGCAG”, the binding signal is 3990 fluorescence intensity (a.u.).
